Most values lie at the floor of the assay. Slopes are relative: functional sequences can read slightly below zero.
These substances were tested on Saccharomyces cerevisiae PS128 hsf1 delta, HSF1(1-493) fusion (assay: growth estimate (transactivation domain function in HSF1 fusion, heat-shock survival) (a.u. (slope of normalised read count over time)); higher = stronger growth at 37°C, i.e. more transactivation activity). Settings: library: random library.
Method: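 Random 60-nt DNA library encoding peptides of up to 20 aa, fused to the C-terminus of yeast HSF1 residues 1-493 (C-terminal TAD deleted) and expressed from the native HSF1 promoter on a CEN plasmid in hsf1-deleted S. cerevisiae PS128. Cells were selected at 37°C on -trp 5-FOA plates for 0, 2, 4, 6 and 8 days and amplicons were sequenced. Growth estimate is the slope of a robust linear fit of total-sum-normalised read counts (normalised to the first time point) over time, using at least 2 replicates. Sequences are classed functional (TAD activity) above a threshold of -0.13, set from stop-codon control sequences.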

Row | Substance | growth estimate
1 | HELTVLQTSPHGPVCSCRPM | < -0.25
2 | HESFSHEVL | < -0.25
3 | HFAGLAWGLVP | < -0.25
4 | HFARESNVRGLNGQY | < -0.25
5 | HFDKFPHSEA | < -0.25
6 | HFDYVVGYSPFSAVVTY | < -0.25
7 | HFEPNSNTRGSGSPGGVPHS | < -0.25
8 | HFIDESRII | < -0.25
9 | HFLFGP | < -0.25
10 | HFLFNSGRGNR | < -0.25
11 | HFPASLRDRTTRPT | < -0.25
12 | HFQTQMITLQGFLTVWRNNN | < -0.25
13 | HFVHVLGAAHSIILSSKTAR | < -0.25
14 | HFVYKDAKSKSTTGIRDGLA | < -0.25
15 | HFWNLGWSTSACGFHRLRTV | < -0.25
16 | HGDGSVF | < -0.25
17 | HGDRTLSRSVQIMRSMTRVR | < -0.25
18 | HGGDNSSRRKNQRPAPLGHY | < -0.25
19 | HGGRPYRRVRKLSLHRMGVN | < -0.25
20 | HGHSSDIKSFGPLHMSHCHG | < -0.25
21 | HGIAEGAMSFNASSNRCWRL | < -0.25
22 | HGIIEYM | < -0.25
23 | HGKKRQPTRKPG | < -0.25
24 | HGKVVRFHLVVDTRNAMVLT | < -0.25

Row | Substance | growth estimate
25 | HGLAYKSRVTASIPVQGLLP | < -0.25
26 | HGLFCVWGITMVI | < -0.25
27 | HGLLTSHTCMLFPVITFAWS | -0.0311
28 | HGLSRDRRNHLRLLFFPIHV | < -0.25
29 | HGLSRPDCRRSEAEMS | < -0.25
30 | HGNGFGYRGRQVSPWAKSVR | < -0.25
31 | HGQ | < -0.25
32 | HGQASLEPTRVCVRPCVMGA | < -0.25
33 | HGRDWTCLKSSSVHMITSDW | < -0.25
34 | HGRTA | < -0.25
35 | HGSDAG | < -0.25
36 | HGSPTGALRFFNPLMFGGCI | < -0.25
37 | HGSRIVAFGSAGQRGGVGRL | < -0.25
38 | HGT | < -0.25
39 | HGTRKYSALRTCKEEGRAPS | < -0.25
40 | HGVFQGSISRSGW | < -0.25
41 | HGVPAGRAWHGTYVRIWLLD | < -0.25
42 | HGVRAVRKSAAVKFGGIIRR | < -0.25
43 | HGVTDLHDSGSTMGELLVPD | < -0.25
44 | HGWLSPRGHCALPGTRLFAS | < -0.25
45 | HHDVVCFRHKEIKMTVSSSR | < -0.25
46 | HHGEGV | < -0.25
47 | HHP | < -0.25
48 | HHREGRSLKRELLSGAALPE | < -0.25

5 entries drawn at random from the list so far:
Row | Substance | growth estimate
15 | HFWNLGWSTSACGFHRLRTV | < -0.25
29 | HGLSRPDCRRSEAEMS | < -0.25
13 | HFVHVLGAAHSIILSSKTAR | < -0.25
2 | HESFSHEVL | < -0.25
25 | HGLAYKSRVTASIPVQGLLP | < -0.25

(listing goes on)

Row | Substance | growth estimate
49 | HHRTLRRVSYRVTGISGTDE | < -0.25
50 | HHRYIGERMSTISRCGLG | < -0.25
51 | HIGLVLQELCPLGSSTKYMK | < -0.25
52 | HIGRYKS | -0.243
53 | HIIRCDIFARL | < -0.25
54 | HIIRGGACKD | < -0.25
55 | HIKV | -0.246
56 | HILGPHFVGGPQTA | < -0.25
57 | HIPRRSPKVQVP | < -0.25
58 | HIPSTDIGVKSGPVAQGAGS | < -0.25
59 | HIRDQPAKFDSVGS | < -0.25
60 | HIVRAGEAGDILPAGPDCIL | < -0.25
61 | HIVSVRIPDVRR | < -0.25
62 | HIYTDQTCTRLDRDVVSLGD | < -0.25
63 | HKAQFI | < -0.25
64 | HKAVGAYRLL | < -0.25
65 | HKDRTAGMLGRSLGRNAATV | < -0.25
66 | HKEDSAPVRWNN | < -0.25
67 | HKNGLVTDQLQPA | < -0.25
68 | HKRSVQIPRGNGDSHTIRGG | < -0.25
69 | HKS | < -0.25
70 | HKTIVQAKISYTIDRTQGWR | < -0.25
71 | HKWYGAFGR | < -0.25
72 | HKYPPH | < -0.25

Row | Substance | growth estimate
73 | HLAS | < -0.25
74 | HLDEAGLRQSFQSRRVFFSQ | < -0.25
75 | HLEAHPILGLKRRHIFSRLA | < -0.25
76 | HLERVSTSLQSL | < -0.25
77 | HLFKRQRGFQQLASQPHRGP | < -0.25
78 | HLFLCERDFGKVGNLQSQPS | < -0.25
79 | HLGA | < -0.25
80 | HLGLSSQEGNAPVLN | < -0.25
81 | HLIVAAGITGTMLPLHEHIL | < -0.25
82 | HLKSVPGVTDVSI | < -0.25
83 | HLLLRGIAGRHKHCLGVRRR | < -0.25
84 | HLLRKVFLVEILNRSTVRMP | < -0.25
85 | HLRPGTQGVGANFQADRRRT | < -0.25
86 | HLRPPIQDGGI | < -0.25
87 | HLSIARLKSWGISQRGRASG | < -0.25
88 | HLSRLYP | < -0.25
89 | HLVGHYFTDQHNARAVVRHQ | < -0.25
90 | HLVRRFLFS | < -0.25
91 | HLY | < -0.25
92 | HMCVANALSWSRC | < -0.25
93 | HMFYSIGWPVK | < -0.25
94 | HMVSAGHLRCAASLNAISAD | < -0.25
95 | HNAESS | < -0.25

From the supplement of paper PMC5949888
